From patent US7022687B1, “Combination of loteprednol and antihistamines” (Asta Medica AG, priority 1999, dated 2006)
For at least one compound, name, drawing or mass did not settle the structure.

Key:
TNFα release = test: LPS-induced TNFα release in diluted human blood (ELISA); type: cell-based
Description: In vitro, investigations on the influencing of the release of the proinflammatory cytokine TNFα in human blood of various donors diluted 1:5 were carried out. The stimulation was effected using lipopolysaccharide (LPS) from Salmonella abortus equi (10 μg/ml) over the course of 24 h at 37° C. and 5% CO2 in an incubator. The TNFα release was determined using an ELISA, based on antibodies from Pharmingen.

[1] = system: young domestic pigs actively sensitized with an antigen (extract from Ascaris suum); test: Allergen-induced nasal secretion (rhinorrhea) in Ascaris-sensitized young domestic pigs; type: in vivo; conditions: used alone at 10 or 20 μg/nostril
Description: In vivo investigations were carried out on young domestic pigs actively sensitized with an antigen (extract from Ascaris suum). Three weeks later, they were exposed to allergen challenge, which was carried out by intranasal instillation of the Ascaris extract. This local intranasal allergen challenge leads to a very great increase in the nasal secretion (rhinorrhea). The amount of secretion was determined gravimetrically.

**Q.** Which “LPS-induced TNFα release (in words)” value (TNFα release; administered alone) does the source give for `CCOC(=O)O[C@]1(C(=O)OCCl)CC[C@H]2[C@@H]3CCC4=CC(=O)C=C[C@]4(C)[C@H]3[C@@H](O)C[C@@]21C` [Loteprednol] here?
**A.** The value was “remains virtually unchanged”.

**Q.** And the “TNFα release (in words)” value (TNFα release; loteprednol in the presence of azelastine (10 μmol/l))?
**A.** Its value is “inhibited to an increased extent”.

**Q.** What about the “Inhibition of the allergically induced nasal hypersecretion (in words)” value [1] of the same molecule?
**A.** Its value is “only marginal inhibition”.
